# Reference: US20230096517A1, “GLUTARIMIDE SKELETON-BASED COMPOUNDS AND APPLICATION THEREOF” (SHANGHAITECH UNIVERSITY, priority 2020, published 2023)
# Sequences of proteins named here, by UniProt entry; tags and fusion partners are left off. A change or cut given only in a name is not applied to a line headed by its entry.
# UniProt Q13422: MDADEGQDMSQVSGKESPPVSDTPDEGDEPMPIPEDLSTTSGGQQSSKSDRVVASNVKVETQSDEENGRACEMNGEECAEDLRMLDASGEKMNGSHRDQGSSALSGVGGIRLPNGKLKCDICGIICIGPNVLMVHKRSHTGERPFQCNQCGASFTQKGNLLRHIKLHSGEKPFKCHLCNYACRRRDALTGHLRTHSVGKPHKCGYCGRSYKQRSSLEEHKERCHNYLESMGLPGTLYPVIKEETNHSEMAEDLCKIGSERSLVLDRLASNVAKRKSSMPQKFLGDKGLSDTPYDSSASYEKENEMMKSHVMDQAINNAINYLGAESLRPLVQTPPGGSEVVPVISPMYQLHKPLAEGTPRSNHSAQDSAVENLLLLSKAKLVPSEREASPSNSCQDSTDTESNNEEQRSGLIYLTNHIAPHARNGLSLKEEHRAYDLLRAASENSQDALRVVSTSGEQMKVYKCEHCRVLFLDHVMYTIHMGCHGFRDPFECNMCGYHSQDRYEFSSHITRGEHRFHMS
# UniProt Q96SW2: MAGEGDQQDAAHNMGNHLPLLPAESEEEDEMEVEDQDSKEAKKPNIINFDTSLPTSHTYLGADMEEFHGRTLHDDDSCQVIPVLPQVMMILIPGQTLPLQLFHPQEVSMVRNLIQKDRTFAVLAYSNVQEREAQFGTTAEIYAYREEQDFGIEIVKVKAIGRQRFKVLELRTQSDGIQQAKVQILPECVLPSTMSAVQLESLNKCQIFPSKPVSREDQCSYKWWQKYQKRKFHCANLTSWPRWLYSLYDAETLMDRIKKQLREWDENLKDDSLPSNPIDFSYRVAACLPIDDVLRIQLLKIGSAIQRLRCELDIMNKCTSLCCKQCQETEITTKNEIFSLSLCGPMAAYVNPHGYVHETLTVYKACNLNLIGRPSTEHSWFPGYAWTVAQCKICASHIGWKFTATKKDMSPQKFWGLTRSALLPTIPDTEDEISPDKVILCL
# UniProt Q9UKT9: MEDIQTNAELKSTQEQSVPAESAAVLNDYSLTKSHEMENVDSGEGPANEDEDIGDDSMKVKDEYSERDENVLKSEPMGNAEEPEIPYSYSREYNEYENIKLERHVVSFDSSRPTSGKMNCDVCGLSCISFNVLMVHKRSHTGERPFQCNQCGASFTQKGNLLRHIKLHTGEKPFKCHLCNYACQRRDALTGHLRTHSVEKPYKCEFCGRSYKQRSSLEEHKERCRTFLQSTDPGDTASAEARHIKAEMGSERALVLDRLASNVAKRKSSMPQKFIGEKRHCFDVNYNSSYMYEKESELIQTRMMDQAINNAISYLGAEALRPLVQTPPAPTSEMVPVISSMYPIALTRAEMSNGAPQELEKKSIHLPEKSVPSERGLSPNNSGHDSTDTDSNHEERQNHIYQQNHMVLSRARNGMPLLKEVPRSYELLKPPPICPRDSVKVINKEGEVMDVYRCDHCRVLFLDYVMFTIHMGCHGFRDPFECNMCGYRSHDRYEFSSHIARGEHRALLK
# Some results were stated once for a whole list of compounds, not compound by compound.
# Assays:
# [1] = target: T1, IKZF1 (Homo sapiens, UniProt Q13422+Q96SW2); experiment: Western blotting of IKZF1 degradation in MM.1S cells; type: cell-based; settings: 16 h, western blot, FIG. 1
# T1 construct: We studied the abundance of IKZF1 and IKZF3 in MM.15S cells which overexpress IKZF1/3; endogenous in cells; host or cells: MM.1S
# [2] = target: T2, IKZF3 (Homo sapiens, UniProt Q96SW2+Q9UKT9); experiment: Western blotting of IKZF3 degradation in MM.1S cells; type: cell-based; settings: 16 h, western blot, FIG. 1
# T2 construct: We studied the abundance of IKZF1 and IKZF3 in MM.15S cells which overexpress IKZF1/3; endogenous in cells; host or cells: MM.1S
structure (smiles),measurement,setting,value
"O=C1CCC(N2Cc3c(CCCCCCCCNC45CC6CC(CC(C6)C4)C5)cccc3C2=O)C(=O)N1 (centres unmarked) [SIAIS1221105, 3-(4-(8-((adamantan-1-yl)amino)octyl)-1-oxoisoindolin-2-yl)piperidine-2,6-dione]",concentration showing significant degradation effects on IKZF1,[1],below 0.5 nM
same,concentration showing significant degradation effects on IKZF3,[2],below 0.5 nM
